# PubChem BioAssay AID602196, INSERM – 2012
# Screen: 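Genes whose knock-down alters cisplatin killing of lung cancer cells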
# Cell system: human A549 lung cancer cells
# Reagent: siRNA pair against human genes
# Timing: 48 h transfection before cisplatin; time from cisplatin to read-out not stated
# Treatment: cisplatin at a dose killing half of control-siRNA cells; exact dose and duration not given
# Read-out: 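Cisplatin cell death as a shift from the 50% death seen with control siRNA; siRNAs toxic or growth-blocking alone scored 0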
# Reading the numbers: two-siRNA summed score (-2 to +2): higher = both siRNAs protect from cisplatin killing; -2 means both sensitise; mean protection from cisplatin (shift in death) and protection from cisplatin (shift in death), siRNA C: higher = protection from cisplatin killing
# Active means: 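Each siRNA scores 0 if harmful alone by LDH or WST-1, otherwise +1 if it reduces and -1 if it increases cisplatin killing; a gene is active when both siRNAs agree (sum +2 or -2)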
# Meaning of the calls: active = both siRNAs shift cisplatin killing the same way; inactive = no consistent shift, or siRNA harmful alone
# Here is an unselected part of about 23,000 reagents. Over the whole deposit, 455 (2%) were called active. 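Active includes both protection and sensitisation; some change values fall well beyond the stated -50 to +50 range.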 Further read-outs or replicates are left out here. Not given: the amount of reagent.
Gene,two-siRNA summed score (-2 to +2),mean protection from cisplatin (shift in death) (%),"protection from cisplatin (shift in death), siRNA C (%)",outcome
ZNF778,1,16,6.1,inactive
LOC130865,2,16.6,14.8,active
FAT1,0,0.2,-3.3,inactive
LOC391282,0,-6.3,-25.9,inactive
LOC389108,0,5.3,7.5,inactive
TLN2-AS2,0,7.6,10.7,inactive
STRA8,1,9.6,5.3,inactive
CDKN1A,0,1.2,5,inactive
LOC440126,1,14.9,20.8,inactive
FBXW10,1,14.6,7.9,inactive
ACSM2B,1,5.6,25.1,inactive
USP32,0,-9.9,6.2,inactive
DOCK4,0,2.2,6,inactive
PMS2P5,0,-3.2,-7.6,inactive
WDR82,0,-6,-4.8,inactive
LOC440261,0,14.5,11.6,inactive
LOC343505,1,18.9,15.2,inactive
LOC388604,0,7.6,3.6,inactive
HDGFL3,0,5.4,9,inactive
GARIN4,0,-8.2,-14.7,inactive
HBD,0,1,-5.5,inactive
ZFYVE9,1,13.7,16.3,inactive
ZMYM1,0,12.9,13.5,inactive
